“And” between values parts separate entries of the source, which are not always exact repeats. Equal values may be shown once. Screen size: about 400,000 compounds; about 13,000 (3.2%) were called active. Inconclusive results, whose numbers are uncertain, are shown with a selection of clear calls. Calls follow the shape of the dose curve; as a rule, active = well fitted cell-killing curve with a large enough effect; inconclusive = small, poorly fitted or top-dose-only effect, or effect the other way; inactive = flat fitted curve, though single readings scatter. A potency beside an inconclusive call is a rough fit, not a confirmed value.
test: qHTS assay for MDR1-selective chemotherapeutics: Primary screen using the drug-selected MDR subline cells KB-V1; conditions: KB-V1 MDR cells viability, CellTiter-Glo, 72 h; activity change, negative = cytotoxicity: at 46.1 µM (top of the series); also: nearly all actives have a fitted effect of over 60% in size
Summary of the method: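 qHTS viability screen in drug-selected KB-V1 MDR cells: 72 h compound treatment at 37 degrees C, ATP luminescence end point.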
% is scaled to controls: 0 for no effect and ±100 for the full control effect; potency is read from the fitted curve at half-maximal effect.

Structure (SMILES)	Potency	activity change, negative = cytotoxicity
Cc1ccc(C(=O)N2N=C(c3ccc(Br)cc3)CC2c2ccccc2O)cc1 (centres undefined)	inconclusive: 29.1 µM [cytotoxic, single point]	
Cc1ccccc1-n1nnnc1SCC(N)=O	inactive	
COc1ccc(C(=O)c2cc3cccc(OC)c3o2)cc1	inactive	
Cc1cc(NC(=O)Cn2nc(C)c([N+](=O)[O-])c2C)no1	inactive	
COc1ccccc1NS(=O)(=O)c1cccc(NC(=O)c2[nH]c(C)c(C(C)=O)c2C)c1	inconclusive: 18.4 µM [cytotoxic, partial curve]	
O=C1CN(C(=O)COc2ccc(Cl)cc2)C(c2ccc(F)cc2)c2cc(Br)ccc2N1 (centres undefined)	inconclusive: 16.4 µM [cytotoxic, partial curve, poor fit]	
O=C1c2ccccc2S(=O)(=O)c2cc(N3CCOCC3)ccc21	inconclusive: 18.4 µM [cytotoxic, partial curve, poor fit]	
CN(C)c1ccc(C=c2c3ccccc3n3c2c2ccccc2[n+]3C)cc1	inconclusive: 16.4 µM [cytotoxic, single point]	
CC(NC(=O)c1cc2ccccc2o1)c1ccccc1 (centres undefined)	inconclusive: 20.6 µM [cytotoxic, partial curve]	
COc1cc(OC)cc(C(=O)Nc2ccc3c(c2)OCCO3)c1	active: 9.2 µM and inconclusive: 29.1 µM [cytotoxic, single point]	
COc1ccc([C@H]2CC(=O)C=C(c3ccc(Cl)c(C(F)(F)F)c3)C2)cc1OC	inactive	
CCOc1ccccc1Nc1nnc(-c2cc3cc(Cl)ccc3oc2=O)s1	inconclusive: 23.1 µM [cytotoxic, single point]	
Cn1c(=O)c2c(-c3ccc(C(C)(C)C)cc3)n(CC3CCCO3)cc2n(C)c1=O (centres undefined)	inconclusive: 8.2 µM [cytotoxic, partial curve]	
CCOC(=O)Cc1csc(SCC(=O)N2CCN(c3ccc(OC)cc3)CC2)n1	active: 20.6 µM	
CCc1cccc(CC)c1NC(=S)NC(C)c1ccccc1 (centres undefined)	inconclusive: 29.1 µM [cytotoxic, single point]	
Cc1cccc(OCC(=O)Nc2cc(S(=O)(=O)N3CCOCC3)ccc2N2CCCC2)c1C	inconclusive: 2.59 µM [cytotoxic, full curve]	
CCOC(=O)c1c[nH]c2c([N+](=O)[O-])cc(OC)cc2c1=O	inactive	
O=c1[nH]cnc2c1sc1nc(C(F)F)cc(-c3ccccc3)c12	active: 11.6 µM	
CC(=O)c1sc(Nc2nc(C)cc(C)n2)nc1C	inconclusive: 25.9 µM [cytotoxic, single point]	
CCCN(CCC)CCCNC(=O)c1nn(-c2cccc(OC)c2)c(=O)c2ccccc12		inconclusive: -24.1%
CCCCOc1ccc(C(=O)NCCc2ccccc2)cc1	inconclusive: 29.1 µM [cytotoxic, single point]	
COc1cc(-c2noc(C)c2C#Cc2ccc(N)cc2)cc(OC)c1OC	active: 1.3 µM	inconclusive: 3.22%

Full records from above.
Cc1ccccc1-n1nnnc1SCC(N)=O is listed with Potency: inactive
CCCCOc1ccc(C(=O)NCCc2ccccc2)cc1 is listed with Potency: inconclusive: 29.1 µM [cytotoxic, single point]

Additional compounds follow:

Structure (SMILES)	Potency	activity change, negative = cytotoxicity
CCCn1nc(NC(=O)c2cccc(Cl)c2)c2cc3cccc(C)c3nc21	inconclusive: 29.1 µM [rising, single point]	
c1csc(-c2ccc(N3CCOCC3)nn2)c1	inconclusive: 29.1 µM [cytotoxic, single point]	
O=C(Nc1nc(COc2ccccc2)cs1)C12CC3CC(CC(C3)C1)C2	inactive	
CC1C/C(=N/O)C(C)CN1 (centres undefined)	inconclusive: 32.6 µM [rising, single point]	
COC(=O)c1sccc1N/N=C/c1cccc(OC)c1O	inconclusive: 7.31 µM [cytotoxic, partial curve]	
CC1=C(C(=O)O)CC(S(=O)(=O)O)C1(C)C (centres undefined)	inactive	
O=C(OCCN1C(=O)c2cccc3c(N4CCOCC4)ccc(c23)C1=O)c1ccc(Cl)cc1Cl	inconclusive: 2.91 µM [cytotoxic, partial curve, poor fit]	
Cc1ccc(NC(=O)Cn2c(-c3nonc3N)nc3ccccc32)cc1C	inconclusive: 29.1 µM [rising, single point]	
O=C(Nc1ccc(Oc2cccnc2)cc1)c1ccccc1F	active: 16.4 µM	
O=C(/C=C/c1ccc(N2CCCCC2)c([N+](=O)[O-])c1)c1ccc(S(=O)(=O)N2CCCC2)cc1	inconclusive: 18.4 µM [cytotoxic, single point]	
CCc1ccc(S(=O)(=O)c2cn(C)c3cc(F)c(F)cc3c2=O)cc1	inactive	
CCOCCCn1c(=NC(=O)c2cccnc2)c(C(=O)OCC)cc2c(=O)n3ccccc3nc21	inconclusive: 25.9 µM [cytotoxic, partial curve, poor fit] and inconclusive: 2.06 µM [cytotoxic, full curve, poor fit]	
O=C1C(=Cc2ccccc2[N+](=O)[O-])Cc2ccccc21	inconclusive: 20.6 µM [cytotoxic, single point]	
Cc1cccc(NC(=O)CSc2nc3ccccc3c3nc(CCc4c(C)n[nH]c4C)nn23)c1	active: 23.1 µM and inconclusive: 29.1 µM [cytotoxic, single point]	
Cn1c(=O)n(C)c2cc(NC(=O)c3cc4ccccc4o3)ccc21	inconclusive: 20.6 µM [cytotoxic, single point]	
CC(C)CC(=O)N1CCN(S(=O)(=O)c2ccc3ccccc3c2)CC1	active: 7.31 µM	
COc1ccc(SC[C@H](Cc2ccccc2)N2CCN(CCc3ccccc3)CCC2=O)cc1	inconclusive: 29.1 µM [cytotoxic, single point]	
Cc1nc(C)n(CC(=O)N2CCCC(C(=O)c3cccc4ccccc34)C2)n1 (centres undefined)	inactive	
CC(C)C(C(=O)NCc1ccco1)N(CC1CCCO1)C(=O)CNS(=O)(=O)c1ccc(F)cc1 (centres undefined)	inconclusive: 29.1 µM [cytotoxic, single point]	
Cc1ccc(NC(=O)COc2ccc(S(=O)(=O)N3CCOCC3)cc2)cc1	inconclusive: 20.6 µM [cytotoxic, single point]	
Cc1nc2ccccc2c(=O)n1NC(=O)c1ccc(Cl)c(Cl)c1	inactive	

Source: PubChem BioAssay AID1347076 (National Center for Advancing Translational Sciences (NCATS), 2019)
